Out of some 300,000 compounds screened, about 950 (0.32%) were called active. The shares of active, inactive and inconclusive entries below differ from those in the screen.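 Rule for the calls: active = mean activation of at least 10% of the iron chelator positive control signal, with at least half of replicates also reaching 10%; inconclusive = mean and replicate majority disagree about reaching 10%; inactive = mean and most replicates under 10%.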
test: HIF pathway transcriptional activators, primary screen, cell-based, U2OS HRE-luciferase, luminescence (AID 1910); conditions: U2OS HRE-luciferase reporter, active compounds read high, screened at 7.5 µM (by protocol), normalized: DMSO 0%, desferrioxamine 100%

Row | Compound | activation
1 | COCc1ccc(C(=O)N2CCCC(CCC(=O)NCc3ccccc3F)C2)o1 (stereo unspecified) | inconclusive: 7.33%
2 | C=CCN1C(=O)/C(=C/c2ccc(-c3ccc(F)cc3)o2)SC1=S | inactive: 0.099%
3 | Cc1nc2nc(-c3ccco3)nn2c(C)c1Cl | inconclusive: 6.33%
4 | Cc1cc(C)cc(Nc2nc(-c3ccc(S(=O)(=O)N4CCCC4)cc3)cs2)c1 | inactive: 0.168%
5 | COc1ccc(Nc2nc(N/N=C/c3ccc(N(C)C)cc3)nc(C)c2[N+](=O)[O-])cc1 | inconclusive: 6.14%
6 | CCOC(=O)c1ccc(N2C=C(C(=O)OC)C(c3cccc(O)c3)C(C(=O)OC)=C2)cc1 | inactive: -0.53%
7 | Cc1cccc2[nH]c(CN(C)C(=O)C3CCC(=O)N(C4CC4)C3)nc12 (stereo unspecified) | inconclusive: 8.12%
8 | COc1ccc(NC(=O)c2cc(-c3ccco3)nc3ccccc23)cc1S(=O)(=O)N1CCOCC1 | inactive: -0.864%
9 | Cc1ccc(C(=O)CSc2cc(C)[nH]c(=O)n2)cc1 | inconclusive: 7.58%
10 | COc1ccc(C(=O)Nc2cccc(-c3ccc4nncn4n3)c2)cc1 | inconclusive: 7.44%
11 | Cc1ccc(S(=O)(=O)N(C)CC(=O)NCCCn2ccnc2)cc1 | inconclusive: 6.31%
12 | Cc1ccc(NC(=O)Nc2cccc(F)c2)nc1 | inconclusive: 7.43%
13 | COCCNC(=O)C(=O)Nc1cc2c3c(c1)CCC(=O)N3CCC2 | inactive: 0.0345%
14 | Cc1ccc2nc(SCC(=O)Nc3ccc(Br)cc3)nc(=O)n2c1 | inconclusive: 5.42%
15 | CC(C)C(=O)N1CCN(c2nc3ccc(Cl)cc3s2)CC1 | inconclusive: 8.21%
16 | O=C(/C=C/c1ccco1)Nc1nc(-c2ccc(F)c(F)c2)cs1 | inactive: 1.07%
17 | O=C(NS(=O)(=O)c1ccc2c(c1)OCCO2)c1ccccc1 | inconclusive: 4.97%
18 | Cc1ccc(NC(=O)CSc2ncc3ccccn23)cc1 | inconclusive: 3.67%
19 | CCOC(=O)c1c(NC(=O)COC)sc2c1CCCC2 | inactive: -0.0595%
20 | CCOC(=O)Cc1c(C)nc2c(-c3ccc(Cl)cc3)cnn2c1C | inactive: 0.0484%
21 | Cc1cccc(OCC(=O)NCC(=O)N/N=C/c2cccnc2)c1 | inconclusive: 9.03%
22 | COc1ccc(CN2C(=O)C(Cc3ccccc3)Nc3ncnc(N4CCc5ccccc5C4)c32)cc1 (stereo unspecified) | inactive: 1.61%
23 | Cc1cc(C)c2c(N)c3ccccc3nc2n1 | active: 19.8%
24 | O=S(=O)(/C=C/c1ccccc1)N1CCNCC1 | inconclusive: 5.71%
25 | Oc1ccc(Cl)cc1CNCC1CCCO1 (stereo unspecified) | inconclusive: 5.64%
26 | CC(C)[C@H](NC(=O)C1CCN(S(=O)(=O)c2ccc(F)cc2)CC1)C(=O)N1CCCCCC1 | inactive: -0.0466%

Individual results from above.
activation, Cc1ccc(NC(=O)CSc2ncc3ccccn23)cc1 reads inconclusive: 3.67%
activation, COCc1ccc(C(=O)N2CCCC(CCC(=O)NCc3ccccc3F)C2)o1 (stereo unspecified) reads inconclusive: 7.33%

Reference: PubChem BioAssay AID1910 (Broad Institute, 2009)
